Results are given in words; binding and its absence hold for the method and conditions named. Binding seen in cells or lysates may run through a third protein. Binding can be weak; no strength is given.
Target: ClC-5-mVenus (human)
Assay: co-IP; HEK293T cells co-transfected with ClC-5-mVenus and barttin-mCherry; membrane proteins solubilised with ComplexioLyte 47a; cleared lysate incubated 1 h with monoclonal anti-GFP antibody, then 2 h with protein G-sepharose beads; eluted in SDS loading buffer; detected by fluorescence scan of the SDS gel; controls without antibody and with barttin-mCherry alone

- binding: binds
B1: barttin-mCherry (protein, UniProt Q8WZ55 1-320)
chain: MADEKTFRIGFIVLGLFLLALGTFLMSHDRPQVYGTFYAMGSVMVIGGIIWSMCQCYPKITFVPADSDFQGILSPKAMGLLENGLAAEMKSPSPQPPYVRLWEEAAYDQSLPDFSHIQMKVMSYSEDHRSLLAPEMGQPKLGTSDGGEGGPGDVQAWMEAAVVIHKGSDESEGERRLTQSWPGPLACPQGPAPLASFQDDLDMDSSEGSSPNASPHDREEACSPQQEPQGCRCPLDRFQDFALIDAPTLEDEPQEGQQWEIALPNNWQRYPRTKVEEKEASDTGGEEPEKEEEDLYYGLPDGAGDLLPDKELGFEPDTQG
